## Results from one PubChem assay

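Luminescence from an EWS-FLI1 target-promoter (NR0B1) reporter, set against a CMV-promoter reporter, two days after silencing single genes in TC32 Ewing sarcoma cells. Each siRNA was applied at 20 nM. A z-score of the log NR0B1-over-CMV signal, less the median of siRNAs with the same seed; more negative means a stronger specific loss of the NR0B1 reporter.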

The strongest results of the screen are mostly left out here. Sequences are the guide (antisense) strand, without overhang.

| # | siRNA | gene | seed-corrected z-score |
|---|---|---|---|
| 1 | `UACUGAUGUAUAUCGCUCC` | COQ10B | 0.4624 |
| 2 | `UCUCCUUUUAGCGUGUCCC` | GNB4 | -0.01781 |
| 3 | `UGUUCGUUGAUGAGGGAGC` | PRSS1 | -0.1744 |
| 4 | `UAACUUUCCAUACUCCGCC` | UBE2H | -0.07641 |
| 5 | `UAUCUCAUGAUAAUCAGAG` | SRGAP2 | -0.6581 |
| 6 | `UAUGAAGGAAGACAUACGU` | ORMDL2 | 1.083 |
| 7 | `AAAGCUGAGGUGUCCAUAG` | CD68 | 0.02332 |
| 8 | `UCUUUCUCAGGAUAUUCUG` | AIFM2 | 0.3562 |
| 9 | `UAAGUGAGCACUAGCAACG` | PGAP2 | -0.3524 |
| 10 | `UUCUGUUCCUUCAACUCCU` | LMNTD2 | -0.3831 |
| 11 | `AGCUUCUCCAUUAAGACAC` | FANCE | -0.2348 |
| 12 | `AAAGUAGUGAGGGCAGCGG` | MAB21L2 | 2.855 |
| 13 | `ACUGCGUUCAUGUACUUCC` | EFL1 | -0.3442 |
| 14 | `UGCGAAGCCGCUAUAGUGG` | CYB5D2 | 0.4901 |
| 15 | `AAACCAAACAGGAUAAAGG` | LOC645949 | -0.1815 |
| 16 | `UAGAUGUAGGCAAUGCUGU` | OR2AT4 | -0.391 |
| 17 | `GAUCCUGUUAUCGUCUUCC` | SF1 | 0.01504 |
| 18 | `UGCAGUCUAAGUAUCUUGG` | GAS6 | -0.0341 |
| 19 | `UUCAAUGUUGUAUCUAUGG` | FCF1 | 1.036 |
| 20 | `AUGUGGACAAUCAAUAGCC` | L2HGDH | -1.402 |
| 21 | `UAACGUAGUUCUGAACACC` | WDR66 | -0.4685 |
| 22 | `UACUUUCUCAUCUUUGGUC` | ATP13A1 | -0.1713 |
| 23 | `UUUCUUUUCCGGCCGAUGG` | AKR1C2 | 0.08072 |
| 24 | `UUUGCGAUGAAUAGCACGG` | ACTR1B | -0.2335 |
| 25 | `UAGAAGUGGACAGAGAAGG` | TMEM8B | 0.3561 |
| 26 | `UAAUCCACAGGAAACCUCC` | FLJ16734 | 1.03 |
| 27 | `AAACCUUGAAGAGUGCUAC` | INSC | 0.5983 |
| 28 | `UUACUUGUAACCUAGGAAG` | FAM84B | -1.294 |
| 29 | `UUCUUGUAAAGACGUAUCG` | INPP4A | 0.8113 |
| 30 | `UUCAUACUCCUUGCGGACC` | RNF20 | -0.8422 |
| 31 | `UCAGGAACUGGUACAAGAG` | SLC25A35 | -1.346 |
| 32 | `UCAGGGCAUACUUAAGUCU` | RPS4X | -1.281 |
| 33 | `AUCCUUGUAACUACGGAGG` | VPS13D | -0.9716 |
| 34 | `UAGAGUUCAGAAGUAGUCC` | TFDP2 | 0.0164 |
| 35 | `ACCUGUCCCAGAAAUGCCC` | MPG | -0.8535 |
| 36 | `UACCUAAAUAGAUACCAGC` | SLCO6A1 | 0.2846 |
| 37 | `UAACUCUCUCGACCAGUGC` | SLA | -0.299 |
| 38 | `AGAAUUACAAGAGUUUAGG` | FAM101B | 0.8935 |
| 39 | `AUCGUUUGUAUUAUAGAGG` | CACNA1B | -0.9905 |
| 40 | `UGUCGAUACAGGGAUUUGG` | LACC1 | 0.351 |
| 41 | `UAGCAAACGAUGACGCAGG` | FZD9 | -0.6932 |
| 42 | `UUGGUGGUUAUAGCAGUGG` | C10orf25 | -0.6771 |

The results are deposited in PubChem (AID1159506; NCATS, 2015).